{"sequences": {"note": "Amino acid sequences for entries named in this document (tags omitted). Residues count along the entry.", "UniProt P59901, residues 24-499": "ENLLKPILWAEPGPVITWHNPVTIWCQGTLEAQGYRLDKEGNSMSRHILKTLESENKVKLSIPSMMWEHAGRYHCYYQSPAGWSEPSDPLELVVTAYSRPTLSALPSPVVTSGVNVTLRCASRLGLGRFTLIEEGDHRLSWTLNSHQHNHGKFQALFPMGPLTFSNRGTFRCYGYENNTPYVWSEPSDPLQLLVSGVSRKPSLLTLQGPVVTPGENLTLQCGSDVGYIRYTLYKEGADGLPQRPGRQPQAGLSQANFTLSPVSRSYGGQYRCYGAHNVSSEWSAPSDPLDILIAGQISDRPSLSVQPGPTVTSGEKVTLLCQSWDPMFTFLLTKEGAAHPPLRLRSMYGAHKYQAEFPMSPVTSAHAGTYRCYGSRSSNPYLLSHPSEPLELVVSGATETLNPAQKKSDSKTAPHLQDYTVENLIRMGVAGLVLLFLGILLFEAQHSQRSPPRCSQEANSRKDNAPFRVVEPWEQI", "UniProt Q10589, residues 49-161": "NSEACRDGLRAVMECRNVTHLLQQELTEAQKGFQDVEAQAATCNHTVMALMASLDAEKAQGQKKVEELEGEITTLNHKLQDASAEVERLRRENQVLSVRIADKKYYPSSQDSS"}, "source": "paper PMC4501562", "about": "“Vpu Exploits the Cross-Talk between BST2 and the ILT7 Receptor to Suppress Anti-HIV-1 Responses by Plasmacytoid Dendritic Cells” (PLoS Pathogens, 2015)", "key": {"[1]": {"molecular_target": "ILT7 on the ILT7+ NFAT-GFP reporter mouse cell line (CT550) (human) (UniProt P59901)", "assay": "proximity ligation; ILT7+ or ILT7- NFAT-GFP reporter cells incubated with BST2-Fc-containing supernatant (approximately 300 ug/ml), cross-linked with DTSSP, fixed; Duolink PLA with mouse anti-ILT7 mAb and rabbit polyclonal anti-BST2"}, "[2]": {"molecular_target": "full length ILT7 expressed on HEK293T cells (human) (UniProt P59901)", "assay": "flow cytometry on cells; control or ILT7-transfected HEK293T cells incubated with BST2-Fc-containing supernatant (approximately 300 ug/ml) 30 min at 4 C, then cross-linked with DTSSP 30 min at room temperature; surface BST2-Fc stained with rabbit anti-BST2 serum and anti-human IgG"}}, "note": "These are yes or no findings as the source states them, for the method shown. For some assays here: Binding seen in cells or lysates may run through a third protein. Some binding calls cover weakened binding; strength is not graded here.", "data": [{"substance": "Fc-tagged ectodomain of BST2 (from UniProt Q10589 49-161) (Fc fusion)", "values": [{"measurement": "binding", "setting": "[1]", "value": "binds"}, {"measurement": "binding", "setting": "[2]", "value": "binds"}]}]}
